# From the supplement of paper PMC7580552
# Counter-ions that a name gives are not always drawn. ± gives the standard deviation of the averaged measurements. This is one part of the list. Plates or batches differ in their baseline, so values are only roughly comparable.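 The strain is a K-12 laboratory model grown without shaking in 96-well plates, and biofilm is the crystal violet stain retained on the wells, read as absorbance. Drugs were picked as candidate specific biofilm blockers when they cut staining strongly but slowed free-floating growth by less than 70%.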
# Tested on: Escherichia coli W3110
# Assay: biofilm formation (crystal violet staining) relative to untreated control; higher = more biofilm
# Settings: 10 µM; 20-24 h; 30 °C; TB
row,Structure (SMILES),biofilm formation [%]
1,CC(CN1c2ccccc2Sc2ccccc21)N(C)C (stereo unspecified) [Promethazine hydrochloride],59
2,NS(=O)(=O)c1cc2c(cc1C(F)(F)F)NC(Cc1ccccc1)NS2(=O)=O (stereo unspecified) [Bendroflumethiazide],74
3,O=C(c1ccc(OCCN2CCCCC2)cc1)c1c(-c2ccc(O)cc2)sc2cc(O)ccc12 [Raloxifene hydrochloride],59
4,CCn1cc(C(=O)O)c(=O)c2cc(F)c(N3CCNCC3)cc21 [Norfloxacin],15
5,CCOC(=O)C1=C(C)NC(C)=C(C(=O)OC)C1c1cccc([N+](=O)[O-])c1 (stereo unspecified) [Nitrendipine],53
6,CC1CCc2cc(F)cc3c(=O)c(C(=O)O)cn1c23 (stereo unspecified) [Flumequine],3
7,O=C(NCC1CCCCN1)c1cc(OCC(F)(F)F)ccc1OCC(F)(F)F (stereo unspecified) [Flecainide acetate],65
8,CCCCOc1ccc(OCCCN2CCOCC2)cc1 [Pramoxine hydrochloride],80
9,CC(C)[C@H]1CC[C@H](C(=O)N[C@H](Cc2ccccc2)C(=O)O)CC1 [Nateglinide],75
10,COc1ccccc1OCCNCC(O)COc1cccc2[nH]c3ccccc3c12 (stereo unspecified) [Carvedilol],73
11,CC(C)c1nc(CN(C)C(=O)N[C@H](C(=O)N[C@@H](Cc2ccccc2)C[C@H](O)[C@H](Cc2ccccc2)NC(=O)OCc2cncs2)C(C)C)cs1 [Ritonavir],87
12,COc1cc(N)c(Cl)cc1C(=O)NC1CCN(Cc2ccccc2)CC1 [Clebopride maleate],85
13,CCN1CCCC1CNC(=O)c1cc(S(=O)(=O)CC)c(N)cc1OC (stereo unspecified) [Amisulpride],94
14,Nc1nc(N)nc(-c2cc(Cl)ccc2Cl)n1 [Irsogladine maleate],71
15,Cc1c(OCC(F)(F)F)ccnc1C[S+]([O-])c1nc2ccccc2[nH]1 (stereo unspecified) [Lansoprazole],62
16,Cn1c(=O)c2c(ncn2C)n(C)c1=O [Caffeine],75
17,CC(C)(C)NCC(O)c1ccc(O)c(CO)c1 (stereo unspecified) [Salbutamol],75
18,CC(C)(C)NC(=O)[C@@H]1CN(Cc2cccnc2)CCN1C[C@@H](O)C[C@@H](Cc1ccccc1)C(=O)N[C@H]1c2ccccc2C[C@H]1O [Indinavir sulfate],74
19,O=C(O[C@@H]1C[C@@H]2C[C@H]3C[C@H](C1)N2CC3=O)c1c[nH]c2ccccc12 [Dolasetron mesilate],73
20,COC(=O)Nc1nc2cc(C(=O)c3ccc(F)cc3)ccc2[nH]1 [Flubendazol],50.5 ± 3.5
21,COC1=CC(=O)C[C@@H](C)[C@]12Oc1c(Cl)c(OC)cc(OC)c1C2=O [Griseofulvin],70
22,CN(C)CCC(c1ccc(Cl)cc1)c1ccccn1 (stereo unspecified) [Chlorpheniramine maleate],36
23,COc1cc(N)c(Cl)cc1C(=O)NC1CCN(CCCOc2ccc(F)cc2)CC1OC (stereo unspecified) [Cisapride],94
24,CN(C)CCCC1(c2ccc(F)cc2)OCc2cc(C#N)ccc21 (stereo unspecified) [Citalopram Hydrobromide],75
25,CCCC(CCC)C(=O)O [Valproic acid],51
26,O=C(O)CNC(=O)C(CS)Cc1ccccc1 (stereo unspecified) [Thiorphan],91

# Among those listed so far, these have an NH in an aromatic ring:
row,Structure (SMILES),biofilm formation [%]
10,COc1ccccc1OCCNCC(O)COc1cccc2[nH]c3ccccc3c12 (stereo unspecified) [Carvedilol],73
15,Cc1c(OCC(F)(F)F)ccnc1C[S+]([O-])c1nc2ccccc2[nH]1 (stereo unspecified) [Lansoprazole],62
19,O=C(O[C@@H]1C[C@@H]2C[C@H]3C[C@H](C1)N2CC3=O)c1c[nH]c2ccccc12 [Dolasetron mesilate],73
20,COC(=O)Nc1nc2cc(C(=O)c3ccc(F)cc3)ccc2[nH]1 [Flubendazol],50.5 ± 3.5

# Remaining list, next part:

row,Structure (SMILES),biofilm formation [%]
1,Cc1onc(-c2ccccc2)c1C(=O)N[C@@H]1C(=O)N2[C@@H]1SC(C)(C)[C@@H]2C(=O)O [Oxacillin sodium],47
2,COc1ccc2c(c1)C(=O)N(CCc1ccc(S(=O)(=O)NC(=O)NC3CCCCC3)cc1)C(=O)C2(C)C [Gliquidone],74
3,CN(C)CCN(Cc1ccc(Cl)cc1)c1ccccn1 [Chloropyramine hydrochloride],74
4,NS(=O)(=O)Cc1noc2ccccc12 [Zonisamide],59
5,"Cc1cn([C@H]2C[C@H](N=[N+]=[N-])[C@@H](CO)O2)c(=O)[nH]c1=O [Zidovudine, AZT]",16
6,COc1ccc([C@@H]2Sc3ccccc3N(CCN(C)C)C(=O)[C@@H]2OC(C)=O)cc1 [Diltiazem hydrochloride],72
7,CC(C[N+](C)(C)C)OC(N)=O (stereo unspecified) [Bethanechol chloride],66
8,NCCc1cc[nH]n1 [Betazole hydrochloride],66
9,CCCNC(C)C(=O)Nc1c(C)csc1C(=O)OC (stereo unspecified) [Articaine hydrochloride],84
10,COc1cccc(N(C)C(=S)Oc2ccc3c(c2)CCCC3)n1 [Liranaftate],74
11,Cc1c(NC(C)C)c(=O)n(-c2ccccc2)n1C [Isopyrin hydrochloride],95
12,C[C@]12CCC(=O)C=C1C=C[C@@H]1[C@@H]2CC[C@@]2(C)[C@H]1CC[C@@]21CCC(=O)O1 [Canrenone],97
13,NC(=O)OCC(O)COc1ccc(Cl)cc1 (stereo unspecified) [Chlorphensin carbamate],90
14,COC(=O)CCc1ccc(OCC(O)CNC(C)C)cc1 (stereo unspecified) [Esmolol hydrochloride],78
15,CN1C(C(=O)Nc2ccccn2)=C(O)c2ccccc2S1(=O)=O [Piroxicam],91
16,COCCOC(=O)C1=C(C)NC(C)=C(C(=O)OC(C)C)C1c1cccc([N+](=O)[O-])c1 (stereo unspecified) [Nimodipine],41
17,CNCCC=C1c2ccccc2C=Cc2ccccc21 [Norcyclobenzaprine],69
18,Cc1ccc(C)c(OCCCC(C)(C)C(=O)O)c1 [Gemfibrozil],77
19,O=C(O)C[C@H](O)C[C@H](O)/C=C/c1c(C2CC2)nc2ccccc2c1-c1ccc(F)cc1 [Pitavastatin calcium],81
20,O=C(CCCN1CCC(O)(c2ccc(Cl)cc2)CC1)c1ccc(F)cc1 [Haloperidol],43
21,CN(Cc1ccc(C(C)(C)C)cc1)Cc1cccc2ccccc12 [Butenafine Hydrochloride],69
22,CCCCCCCCNC(C)C(O)c1ccc(SC(C)C)cc1 (stereo unspecified) [Suloctidil],81
23,CC(=O)CC(c1ccc([N+](=O)[O-])cc1)c1c(O)c2ccccc2oc1=O (stereo unspecified) [Acenocoumarol],86
24,S=c1[nH]cnc2nc[nH]c12 [Mercaptopurine],79
25,COc1ccc2c3c1O[C@H]1C[C@@H](O)C=C[C@@]31CCN(C)C2 [Galanthamine hydrobromide],61
